{"source": "patent EP0657176B1", "about": "“Composition containing a water-insoluble or slightly water-soluble compound with enhanced water-solubility” (priority 1993, dated 1995)", "origin": "cited, not measured here", "details": "reported values for the parent cyclodextrins; cited from earlier work", "note": "The name of at least one read-out is uncertain."}
{"compound": "OC[C@H]1O[C@@H]2O[C@H]3[C@H](O)[C@@H](O)[C@@H](O[C@H]4[C@H](O)[C@@H](O)[C@@H](O[C@H]5[C@H](O)[C@@H](O)[C@@H](O[C@H]6[C@H](O)[C@@H](O)[C@@H](O[C@H]7[C@H](O)[C@@H](O)[C@@H](O[C@H]8[C@H](O)[C@@H](O)[C@@H](O[C@H]1[C@H](O)[C@H]2O)O[C@@H]8CO)O[C@@H]7CO)O[C@@H]6CO)O[C@@H]5CO)O[C@@H]4CO)O[C@@H]3CO", "note": "[β-CyD, β-cyclodextrin]", "values": [{"measurement": "water-solubilities", "result": "about 2%"}]}
